Test results published in PMC4094682.
These are yes or no findings as the source states them, for the method shown. Binding seen in cells or lysates may run through a third protein. Some entries that bind do so weakly or less than the wild type. For some assays here: Tags and fused reporters may be left off the sequences shown.

By UniProt entry, the sequences of proteins in these tests, tags left out.
UniProt P49841: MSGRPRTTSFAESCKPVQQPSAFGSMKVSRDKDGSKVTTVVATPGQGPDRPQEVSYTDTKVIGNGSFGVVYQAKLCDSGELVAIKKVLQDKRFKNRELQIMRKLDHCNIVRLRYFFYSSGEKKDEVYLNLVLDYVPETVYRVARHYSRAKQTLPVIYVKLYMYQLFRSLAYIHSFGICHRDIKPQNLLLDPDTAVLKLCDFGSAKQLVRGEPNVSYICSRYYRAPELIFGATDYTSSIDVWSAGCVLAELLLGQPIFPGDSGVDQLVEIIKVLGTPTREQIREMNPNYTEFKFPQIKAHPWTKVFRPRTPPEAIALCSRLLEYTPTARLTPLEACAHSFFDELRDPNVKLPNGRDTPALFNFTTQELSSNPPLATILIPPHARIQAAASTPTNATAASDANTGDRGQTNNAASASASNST
UniProt Q9WV60: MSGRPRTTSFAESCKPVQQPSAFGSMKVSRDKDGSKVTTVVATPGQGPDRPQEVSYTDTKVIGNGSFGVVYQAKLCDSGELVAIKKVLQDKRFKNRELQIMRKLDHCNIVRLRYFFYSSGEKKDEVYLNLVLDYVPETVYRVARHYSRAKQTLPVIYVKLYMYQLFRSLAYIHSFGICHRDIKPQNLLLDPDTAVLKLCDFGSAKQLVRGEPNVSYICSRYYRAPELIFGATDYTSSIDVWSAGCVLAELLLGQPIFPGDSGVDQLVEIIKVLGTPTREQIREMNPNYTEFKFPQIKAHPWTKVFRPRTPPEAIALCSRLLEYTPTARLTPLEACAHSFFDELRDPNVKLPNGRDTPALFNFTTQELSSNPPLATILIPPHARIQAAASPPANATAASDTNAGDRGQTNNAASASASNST

How the values were obtained:
[1] = target: FLAG-GSK-3β (Glycogen synthase kinase 3β) (UniProt P49841); assay: co-IP; HEK293T co-transfected with FLAG-GSK-3β and GFP-ALDOC or GFP-ALDOB (also increasing amounts of GFP-ALDOC DNA); lysates precipitated with anti-FLAG M2-agarose, 2 h at 4°C, washed four times with lysis buffer; Western blot
[2] = target: endogenous GSK-3β (HEK293T) (human (endogenous in HEK293T)) (UniProt P49841); assay: co-IP; HEK293T co-transfected with GFP-Axin or empty vector and with GFP-ALDOC, GFP-ALDOB or empty vector; lysates precipitated with goat anti-Axin antibody or control unimmuned serum; blots with anti-GFP, anti-GSK-3β, anti-tubulin
[3] = target: endogenous GSK-3β (mouse brain) (mouse (endogenous in mouse brain)) (UniProt Q9WV60); assay: co-IP; mouse brain extracts homogenised in RIPA buffer; rabbit anti-GSK-3β antibody or control unimmuned serum, protein A/G agarose; blots with anti-GSK-3β, anti-ALDOC, anti-ALDOB

B1: GFP-ALDOC (Aldolase C, fructose bisphosphate) (enzyme, UniProt P09972 1-364)
chain: MPHSYPALSAEQKKELSDIALRIVAPGKGILAADESVGSMAKRLSQIGVENTEENRRLYRQVLFSADDRVKKCIGGVIFFHETLYQKDDNGVPFVRTIQDKGIVVGIKVDKGVVPLAGTDGETTTQGLDGLSERCAQYKKDGADFAKWRCVLKISERTPSALAILENANVLARYASICQQNGIVPIVEPEILPDGDHDLKRCQYVTEKVLAAVYKALSDHHVYLEGTLLKPNMVTPGHACPIKYTPEEIAMATVTALRRTVPPAVPGVTFLSGGQSEEEASFNLNAINRCPLPRPWALTFSYGRALQASALNAWRGQRDNAGAATEEFIKRAEVNGLAAQGKYEGSGEDGGAAAQSLYIANHAY
In the case of B1, the binding [1] is reported as “binds” and the binding [2] is reported as “binds”.

B2: GFP-ALDOB (Aldolase B) (enzyme, UniProt P05062 1-364)
chain: MAHRFPALTQEQKKELSEIAQSIVANGKGILAADESVGTMGNRLQRIKVENTEENRRQFREILFSVDSSINQSIGGVILFHETLYQKDSQGKLFRNILKEKGIVVGIKLDQGGAPLAGTNKETTIQGLDGLSERCAQYKKDGVDFGKWRAVLRIADQCPSSLAIQENANALARYASICQQNGLVPIVEPEVIPDGDHDLEHCQYVTEKVLAAVYKALNDHHVYLEGTLLKPNMVTAGHACTKKYTPEQVAMATVTALHRTVPAAVPGICFLSGGMSEEDATLNLNAINLCPLPKPWKLSFSYGRALQASALAAWGGKAANKEATQEAFMKRAMANCQAAKGQYVHTGSSGAASTQSLFTACYTY
For B2, the binding [1] was “binds” and the binding [2] was “binds”.

B3: endogenous ALDOB (mouse brain) (enzyme, UniProt Q91Y97 1-364)
chain: MAHRFPALTPEQKKELSEIAQRIVANGKGILAADESVGTMGNRLQRIKVENTEENRRQFRELLFSVDNSISQSIGGVILFHETLYQKDSQGNLFRNVLKEKGIVVGIKLDQGGAPLAGTNKETTIQGLDGLSERCAQYKKDGVDFGKWRAVLRIADQCPSSLAIQENANALARYASICQQNGLVPIVEPEVLPDGDHDLEHCQYVSEKVLAAVYKALNDHHVYLEGTLLKPNMVTAGHACTKKYTPEQVAMATVTALHRTVPAAVPGICFLSGGMSEEDATLNLNAINRCPLPRPWKLSFSYGRALQASALAAWGGKAANKKATQEAFMKRAMANCQAAQGQYVHTGSSGAAATQSLFTASYTY
B3 was tested, and the binding [3] was “binds”.
